In patent US6380359B1, “Liposomes comprising peptide antigens derived from X protein of hepatitis B virus” (Mogam Biotechnology Research Institute, priority 1998, dated 2002):
Part of at least one peptide drawing is inferred or uncertain, most often the ends. Some compounds share one wording; it may come from a single statement. No end group written: not given here.

Columns and labels:
[1] = test system: p815 cell; experiment: Cytotoxicity of T lymphocytes from Balb/C mice immunized with pH-sensitive liposomes comprising HIV peptides, Cr51 release; assay type: in vivo, Balb/C mouse; settings: Balb/C mice immunized with liposomal peptide
Method: (§1) In order to investigate whether pH-sensitive liposome as a carrier of peptides can induce CTL response specific to the virus from which the peptides are derived, pH-sensitive liposomes encapsulating synthetic peptides were prepared and cytotoxicity study were carried out in a serial manner. Since the cellular immunity of the pepitides which can bind HLA-A2, a human MHC class I molecule should be investigated employing human body, indirect experiment employing the peptides derived HIV and HCV proteins which can bind mouse MHC Class I molecule(see: Table 4 below), was carried out. In this regard, the pH-sensitive liposome comprising the peptides were obtained employing the phospholipid composition consisting of POPE/CHOH(7:3 in a molar ratio). Then, mice were immunized with the liposomes, T lymphocytes were isolated from the mice, and cytotoxicity of the T lymphocytes after recognition of target cells labelled with Cr^51 was determined. […]
(§2) 100 μM of the immunized peptide was added to the respective target cells, reacted at 37° C. for 16 hours, and washed twice with RPMI cell culture medium. […] The resultant medium was collected and measured for the intensity of gamma ray to determine cytotoxicity of effector cells against target cells(see: Table 5).

[2] = molecular target: T1, HLA-A2.1, a human MHC Class I molecule (Homo sapiens, UniProt P04439, D140Y/D185E/D98H/E176V/E277Q/G131W/G231S/I119V/I121R/I166T/I218V/L300P/L318F/N151K/N90K/P208A/P217A/Q86G/Q94H/R138H/R169H/T345S); experiment: Binding of synthetic peptides to MHC Class I molecules at the surface of T2 cell (BB7.2 antibody, fluorocytometry); assay type: cell-based; settings: peptide 1-100 μg/ml, 37° C., 4 hours; FIG. 1
T1 construct: endogenous in cells; host or cells: T2 cell line
Method: Seven different peptides including the peptides as disclosed in Table 1 above which were derived from HBV X protein were synthesized chemically and dissolved in phosphate buffered saline(hereinafter, referred to as “PBS”). In order to investigate whether the peptides can bind to MHC Class I molecules associated with induction of CTL, each peptide was added to T2 cell line in a concentration of 100, 64, 32, 16, 8, 4, 2 and 1 μg/ml, respectively, and reacted at 37° C. for 4 hours. And then, the cells were washed with PBS to remove unreacted peptides, added with BB7.2 antibody against HLA-A2.1, a human MHC Class I molecule, and reacted at 4° C. for 1 hour. The cells were washed with PBS again, added with fluorescein isothiocyanate(FITC)-conjugated anti-mouse immunoglobulin antibody, and reacted at 4° C. for 1 hour. Then, fluorescence of the cells was determined using fluorocytometer(FACScan, BECTON DICKINSON) and the results were shown in FIG. 1.
However, when T2 cells are cultivated in a medium containing peptides which can bind to MHC molecules, the peptides bind to MHC molecules at the surface of T2 cell to increase stability of MHC molecules, which results in increase in expression of MHC molecule. Based on the knowledge, binding of a specific peptide to MHC molecule at the surface of T2 cell can be analyzed by determining degree of binding of BB7.2 antibody to the cell surface.

[3] = test system: T2 cells; experiment: Cytotoxicity of peptide-stimulated blood cells (CTL) against T2 cells sensitized by synthesized peptides, Cr51 release; assay type: cell-based, human; settings: blood cells from anti-HBV antibody positive donors
Method: That is, blood positive to anti-HBV antibody(value obtained by ELISA: 1.0 or more) is collected from common blood donors, and centrifuged to harvest blood cells. The said peptides added in a concentration of 10 μg/ml to leukocytes remained after removing red blood cells from the blood cells, and incubated at 37° C. in a CO2 incubator maintained to contain 5% CO2. At 2 days after culture, 10 unit of interleukin-2 was added to the culture medium and the cells were further cultivated for 3 days. Then, blood cells having the same MHC were inactivated by mitomycin C and added to the culture medium as stimulating cells. And the peptides and interleukin-2 were added to the medium and the cells were further cultivated for 7 days. Then, it was determined whether the blood cells recognize and destruct T2 cells having a certain peptide at their surface, and the results were shown in Table 3 below and FIG. 2, respectively.
Destruction of T2 cell by cultured blood cell was determined as followings: 100 μg/ml of a peptide was added to T2 cells and reacted at 37° C. for 3 hours. Then, the cells were washed sufficiently to remove unreacted peptides, added with radioactive sodium chromate(Cr^51), and reacted at 37° C. for 2 hours in a CO2 incubator. And then, they were washed with RPMI medium sufficiently to remove unreacted sodium chromate, mixed with blood cells washed with PBS in a certain ratio, and reacted at 37° C. for 4 hours in a CO2 incubator. The resultant medium was collected and measured for intensity of gamma ray to determine cytotoxicity of the blood cells against T2 cell, i.e., target cell.

[4] = test system: RMA cell or EL4 cell; experiment: Cytotoxicity of T lymphocytes from C57BL/6 mice immunized with pH-sensitive liposomes comprising HCV peptide, Cr51 release; assay type: in vivo, C57BL/6 mouse; settings: C57BL/6 mice immunized with liposomal peptide
Method: as §1, §2

Molecule	Effector cells from spleens of immunized mice recognize and kill target cells [1]	Binding to MHC Class I molecules at the surface of T2 cell [2]	Recognition of peptide by cultured blood cells (CTL) [3]	Effector cells from spleens of immunized mice recognize and kill target cells [4]
CC[C@H](C)[C@H](NC(=O)[C@H](CCCNC(=N)N)NC(=O)[C@@H](NC(=O)[C@H](CCCNC(=N)N)NC(=O)[C@H](CCCCN)NC(=O)[C@H](CCCNC(=N)N)NC(=O)[C@@H](NC(=O)[C@H](CC(N)=O)NC(=O)[C@H](CC(N)=O)NC(=O)[C@H](CC(N)=O)NC(=O)[C@@H]1CCCN1C(=O)[C@H](CCCNC(=N)N)NC(=O)[C@@H](N)[C@@H](C)O)[C@@H](C)O)[C@@H](C)CC)C(=O)N[C@@H](CCC(N)=O)C(=O)N[C@@H](CCCNC(=N)N)C(=O)NCC(=O)N1CCC[C@H]1C(=O)NCC(=O)N[C@@H](CCCNC(=N)N)C(=O)N[C@@H](C)C(=O)N[C@@H](Cc1ccccc1)C(=O)N[C@H](C(=O)N[C@H](C(=O)N[C@H](C(=O)NCC(=O)N[C@@H](CCCCN)C(=O)O)[C@@H](C)CC)[C@@H](C)O)C(C)C [T26K]	can recognize and kill target cells	–	–	–
AMSTTDLEA [×5, AMSTTDLEA]	–	successfully bind	recognized by cultured blood cells	–
DLMGYIPL [D8L, DLMGYIPL]	–	–	–	can recognize and kill target cells
EIRLKVFVL [×7, EIRLKVFVL]	–	successfully bind	recognized by cultured blood cells	–
HLSLRGLFV [×3, HLSLRGLFV]	–	successfully bind	recognized by cultured blood cells	–
